## Assay results

From PubChem BioAssay record AID530 (NCATS, 2006).

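Mouse JNK3 activity from prestimulated HepG2 lysate, measured as phospho-c-Jun AlphaScreen signal after two hours of kinase reaction plus three hours detection. Each compound ran as a dilution series from about 0.6 nM up to 57.1 µM. Fitted AC50 for either an inhibiting or an activating curve; a lower value means greater potency. Calls come from the fitted dose curve (inhibitor, activator, inactive or inconclusive); every row here is inconclusive, including some full curves, so the exact cut-off is unclear.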

Values are in nM. Every entry below has the call inconclusive. These entries are mostly ones the record files as inconclusive; other results of the assay are not listed here. A potency from a partial, single-point or poor curve is only a rough figure. Some entries filed as inconclusive have a full curve. The first word of each remark tells which way the curve ran; it can be opposite to the aim of the assay.

compound	potency (nM)	curve as filed
CCOC(=O)c1cnc2c(cnn2CC)c1NN=C(C)C	39810	inhibitor, single point
CNCCCC12CCC(c3ccccc31)c1ccccc12	31622	activator, partial curve, poor fit
O=[N+]([O-])c1cc(O)c(O)c([N+](=O)[O-])c1	7943	inhibitor, full curve
O=C(c1ccco1)N1CCC[C@@]2(CCN(c3cccc(-c4ccccc4)c3)C2)C1	15848	inhibitor, partial curve
O=C1OC2(c3cc(Br)c(O)c(Br)c3Oc3c2cc(Br)c(O)c3Br)c2c(Cl)c(Cl)c(Cl)c(Cl)c21	39810	inhibitor, partial curve
C[C@@H]1CCN=C(N)S1	398.1	activator, full curve, poor fit
O=S(=O)(O)c1cc(S(=O)(=O)O)c2c(N=Nc3cccc4ccccc34)c(O)ccc2c1	3162	inhibitor, partial curve
N[C@@H]1CCc2cc(O)c(O)cc2C1	39810	activator, single point